Test results from publication PMC11711618.
Results are given in words; binding and its absence hold for the method and conditions named. Binding seen in cells or lysates may run through a third protein. Some binding calls cover weakened binding; strength is not graded here. Tags and fused reporters may be left off the sequences shown.

Sequences of proteins named here, by UniProt entry; tags and fusion partners are left off. Residues count along the entry.
UniProt Q13873, residues 27-1038: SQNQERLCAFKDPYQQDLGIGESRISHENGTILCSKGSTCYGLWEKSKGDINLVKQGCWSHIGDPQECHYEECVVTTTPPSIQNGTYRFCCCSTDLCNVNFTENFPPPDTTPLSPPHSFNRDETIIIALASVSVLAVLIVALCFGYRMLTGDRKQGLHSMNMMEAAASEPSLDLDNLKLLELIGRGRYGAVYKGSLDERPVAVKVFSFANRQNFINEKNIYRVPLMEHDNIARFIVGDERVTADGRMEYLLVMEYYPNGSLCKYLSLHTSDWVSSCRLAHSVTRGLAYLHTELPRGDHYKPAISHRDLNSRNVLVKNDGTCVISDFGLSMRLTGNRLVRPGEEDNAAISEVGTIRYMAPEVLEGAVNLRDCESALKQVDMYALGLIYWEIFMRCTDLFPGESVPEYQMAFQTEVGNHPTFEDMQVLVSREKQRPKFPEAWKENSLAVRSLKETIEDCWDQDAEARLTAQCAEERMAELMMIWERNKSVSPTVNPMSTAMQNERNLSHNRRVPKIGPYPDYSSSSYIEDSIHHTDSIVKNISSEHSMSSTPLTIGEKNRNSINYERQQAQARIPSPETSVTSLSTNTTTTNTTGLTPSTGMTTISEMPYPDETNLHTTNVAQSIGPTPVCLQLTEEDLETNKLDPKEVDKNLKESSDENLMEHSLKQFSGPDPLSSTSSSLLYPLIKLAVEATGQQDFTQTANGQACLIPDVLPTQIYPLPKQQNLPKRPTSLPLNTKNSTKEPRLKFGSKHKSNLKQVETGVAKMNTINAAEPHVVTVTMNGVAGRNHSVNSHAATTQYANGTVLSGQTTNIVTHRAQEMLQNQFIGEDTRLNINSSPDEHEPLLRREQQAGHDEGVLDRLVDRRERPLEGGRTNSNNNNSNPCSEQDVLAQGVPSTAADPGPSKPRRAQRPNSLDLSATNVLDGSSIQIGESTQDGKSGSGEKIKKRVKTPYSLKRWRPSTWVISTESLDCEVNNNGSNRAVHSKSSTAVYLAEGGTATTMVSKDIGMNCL

Target: BMPR2 (tagged, expressed in HUVECs) (human) (UniProt Q13873)
Experiment: proximity ligation; DuoLink in situ PLA on transfected HUVECs expressing the two tagged proteins, seeded on glass cover slips in EC activation medium; signal seen in filopodia

- binding: binds
B1: CDC42-effector protein 1 (CDC42EP1), also known as binder of Rho GTPase 5 (BORG5), tagged (protein, UniProt Q00587 1-391)
chain: MPGPQGGRGAATMSLGKLSPVGWVSSSQGKRRLTADMISHPLGDFRHTMHVGRGGDVFGDTSFLSNHGGSSGSTHRSPRSFLAKKLQLVRRVGAPPRRMASPPAPSPAPPAISPIIKNAISLPQLNQAAYDSLVVGKLSFDSSPTSSTDGHSSYGLDSGFCTISRLPRSEKPHDRDRDGSFPSEPGLRRSDSLLSFRLDLDLGPSLLSELLGVMSLPEAPAAETPAPAANPPAPTANPTGPAANPPATTANPPAPAANPSAPAATPTGPAANPPAPAASSTPHGHCPNGVTAGLGPVAEVKSSPVGGGPRGPAGPALGRHWGAGWDGGHHYPEMDARQERVEVLPQARASWESLDEEWRAPQAGSRTPVPSTVQANTFEFADAEEDDEVKV
